Paper PMC6514072
Results are given in words; binding and its absence hold for the method and conditions named. Binding seen in cells or lysates may run through a third protein. Here binding means that the protein was enriched with, or labelled near, the bait; the list need not be complete.

Sequences of proteins named here, by UniProt entry; tags and fusion partners are left off. A change or cut given only in a name is not applied to a line headed by its entry. Residues count along the entry.
UniProt P23467, residues 23-1997: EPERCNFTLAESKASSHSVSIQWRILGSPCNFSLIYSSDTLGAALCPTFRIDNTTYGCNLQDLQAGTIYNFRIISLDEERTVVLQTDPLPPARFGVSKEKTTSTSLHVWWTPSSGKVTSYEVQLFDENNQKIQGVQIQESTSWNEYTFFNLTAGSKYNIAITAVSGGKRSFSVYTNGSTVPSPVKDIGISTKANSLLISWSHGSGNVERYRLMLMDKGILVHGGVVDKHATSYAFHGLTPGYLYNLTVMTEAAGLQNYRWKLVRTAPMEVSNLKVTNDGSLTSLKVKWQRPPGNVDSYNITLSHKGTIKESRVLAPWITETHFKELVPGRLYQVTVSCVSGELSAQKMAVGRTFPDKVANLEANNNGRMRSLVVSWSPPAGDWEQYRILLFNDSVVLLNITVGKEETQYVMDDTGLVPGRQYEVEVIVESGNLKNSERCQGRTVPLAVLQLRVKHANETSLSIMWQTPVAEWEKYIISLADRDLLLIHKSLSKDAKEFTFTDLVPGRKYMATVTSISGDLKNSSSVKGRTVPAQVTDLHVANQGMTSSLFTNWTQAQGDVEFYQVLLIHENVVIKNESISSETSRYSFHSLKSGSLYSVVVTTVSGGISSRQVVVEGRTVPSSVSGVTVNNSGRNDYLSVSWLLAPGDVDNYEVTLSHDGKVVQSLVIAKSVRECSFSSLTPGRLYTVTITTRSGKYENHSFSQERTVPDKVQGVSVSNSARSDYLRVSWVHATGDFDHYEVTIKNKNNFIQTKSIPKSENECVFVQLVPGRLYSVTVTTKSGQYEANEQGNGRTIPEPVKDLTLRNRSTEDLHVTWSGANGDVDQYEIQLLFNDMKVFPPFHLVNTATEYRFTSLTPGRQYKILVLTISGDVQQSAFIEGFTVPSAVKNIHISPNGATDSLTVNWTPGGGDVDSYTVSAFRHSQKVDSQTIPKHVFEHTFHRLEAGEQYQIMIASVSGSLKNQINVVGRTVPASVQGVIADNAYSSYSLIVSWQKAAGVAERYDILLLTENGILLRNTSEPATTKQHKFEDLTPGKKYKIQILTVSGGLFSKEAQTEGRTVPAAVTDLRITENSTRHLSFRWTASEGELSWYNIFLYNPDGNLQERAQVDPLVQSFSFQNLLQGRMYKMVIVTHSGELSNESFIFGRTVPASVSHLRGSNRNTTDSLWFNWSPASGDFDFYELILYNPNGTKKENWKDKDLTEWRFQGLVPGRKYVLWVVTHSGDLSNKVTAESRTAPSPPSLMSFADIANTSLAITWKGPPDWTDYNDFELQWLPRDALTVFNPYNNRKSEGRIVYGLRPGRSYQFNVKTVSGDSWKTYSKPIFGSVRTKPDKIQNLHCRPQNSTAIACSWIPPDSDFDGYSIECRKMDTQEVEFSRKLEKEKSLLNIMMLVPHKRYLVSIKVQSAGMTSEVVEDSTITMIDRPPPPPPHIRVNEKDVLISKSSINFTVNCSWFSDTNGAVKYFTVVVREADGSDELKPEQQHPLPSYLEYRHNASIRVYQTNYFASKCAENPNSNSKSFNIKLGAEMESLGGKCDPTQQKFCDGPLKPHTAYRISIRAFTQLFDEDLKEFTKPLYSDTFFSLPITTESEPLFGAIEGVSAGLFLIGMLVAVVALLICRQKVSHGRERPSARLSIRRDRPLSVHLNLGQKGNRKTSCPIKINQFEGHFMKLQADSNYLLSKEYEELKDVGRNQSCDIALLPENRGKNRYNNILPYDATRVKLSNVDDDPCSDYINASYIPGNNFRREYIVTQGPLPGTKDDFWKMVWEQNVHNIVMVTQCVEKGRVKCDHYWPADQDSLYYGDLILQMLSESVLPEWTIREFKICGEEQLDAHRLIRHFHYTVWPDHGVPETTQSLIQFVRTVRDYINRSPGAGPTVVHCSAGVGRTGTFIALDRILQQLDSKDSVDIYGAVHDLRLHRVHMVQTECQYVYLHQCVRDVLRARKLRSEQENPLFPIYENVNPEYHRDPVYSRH
UniProt P04350: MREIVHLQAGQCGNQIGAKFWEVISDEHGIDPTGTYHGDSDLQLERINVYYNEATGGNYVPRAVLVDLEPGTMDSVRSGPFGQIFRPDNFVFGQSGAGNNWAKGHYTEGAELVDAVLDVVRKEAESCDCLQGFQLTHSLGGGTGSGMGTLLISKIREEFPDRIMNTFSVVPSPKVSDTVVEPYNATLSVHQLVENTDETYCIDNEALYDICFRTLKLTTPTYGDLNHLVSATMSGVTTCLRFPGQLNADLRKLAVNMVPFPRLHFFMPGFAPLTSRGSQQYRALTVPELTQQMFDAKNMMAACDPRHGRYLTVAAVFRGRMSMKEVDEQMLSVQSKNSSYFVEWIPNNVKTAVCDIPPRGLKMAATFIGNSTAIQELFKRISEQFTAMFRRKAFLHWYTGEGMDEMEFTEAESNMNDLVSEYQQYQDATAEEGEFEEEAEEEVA
UniProt Q96CX2: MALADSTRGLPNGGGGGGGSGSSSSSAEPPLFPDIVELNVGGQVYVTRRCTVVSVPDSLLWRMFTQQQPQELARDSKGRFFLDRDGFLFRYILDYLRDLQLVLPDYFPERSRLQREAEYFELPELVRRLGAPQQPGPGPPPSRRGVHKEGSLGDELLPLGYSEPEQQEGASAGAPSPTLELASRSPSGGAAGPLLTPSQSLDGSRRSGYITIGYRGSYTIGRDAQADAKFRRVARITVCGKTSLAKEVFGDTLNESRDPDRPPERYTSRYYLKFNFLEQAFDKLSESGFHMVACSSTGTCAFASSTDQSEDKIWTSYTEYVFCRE
UniProt P01033, residues 24-207: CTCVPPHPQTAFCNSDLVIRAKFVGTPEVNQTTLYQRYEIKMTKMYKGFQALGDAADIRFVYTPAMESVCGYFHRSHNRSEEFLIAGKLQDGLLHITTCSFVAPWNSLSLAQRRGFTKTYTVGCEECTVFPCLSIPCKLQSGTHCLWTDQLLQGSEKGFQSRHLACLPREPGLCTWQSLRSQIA
UniProt P54753, residues 34-998: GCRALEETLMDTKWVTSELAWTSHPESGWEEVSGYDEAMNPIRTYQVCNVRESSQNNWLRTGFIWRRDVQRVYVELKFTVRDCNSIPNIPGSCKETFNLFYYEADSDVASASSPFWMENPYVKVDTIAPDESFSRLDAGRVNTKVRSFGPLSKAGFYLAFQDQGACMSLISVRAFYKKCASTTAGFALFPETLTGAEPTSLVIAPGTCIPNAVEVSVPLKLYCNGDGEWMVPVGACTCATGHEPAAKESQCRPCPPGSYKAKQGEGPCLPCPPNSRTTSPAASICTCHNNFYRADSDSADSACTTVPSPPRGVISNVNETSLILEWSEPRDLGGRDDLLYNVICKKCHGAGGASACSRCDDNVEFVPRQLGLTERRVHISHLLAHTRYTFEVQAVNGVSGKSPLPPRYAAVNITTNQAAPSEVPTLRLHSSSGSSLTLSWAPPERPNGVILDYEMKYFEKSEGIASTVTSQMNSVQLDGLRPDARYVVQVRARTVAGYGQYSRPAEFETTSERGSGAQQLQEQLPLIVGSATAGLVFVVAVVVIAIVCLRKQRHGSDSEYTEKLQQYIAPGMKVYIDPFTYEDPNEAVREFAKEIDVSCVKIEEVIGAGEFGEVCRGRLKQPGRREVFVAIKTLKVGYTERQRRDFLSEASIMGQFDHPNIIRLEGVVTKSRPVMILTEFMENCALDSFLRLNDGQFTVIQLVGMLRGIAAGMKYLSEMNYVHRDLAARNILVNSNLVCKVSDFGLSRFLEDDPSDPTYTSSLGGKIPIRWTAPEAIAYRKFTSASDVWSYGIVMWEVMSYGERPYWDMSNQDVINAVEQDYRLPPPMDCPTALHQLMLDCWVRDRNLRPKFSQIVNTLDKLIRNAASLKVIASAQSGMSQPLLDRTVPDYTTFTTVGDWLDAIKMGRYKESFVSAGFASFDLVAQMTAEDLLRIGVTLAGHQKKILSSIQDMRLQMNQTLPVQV
UniProt Q9UGP4: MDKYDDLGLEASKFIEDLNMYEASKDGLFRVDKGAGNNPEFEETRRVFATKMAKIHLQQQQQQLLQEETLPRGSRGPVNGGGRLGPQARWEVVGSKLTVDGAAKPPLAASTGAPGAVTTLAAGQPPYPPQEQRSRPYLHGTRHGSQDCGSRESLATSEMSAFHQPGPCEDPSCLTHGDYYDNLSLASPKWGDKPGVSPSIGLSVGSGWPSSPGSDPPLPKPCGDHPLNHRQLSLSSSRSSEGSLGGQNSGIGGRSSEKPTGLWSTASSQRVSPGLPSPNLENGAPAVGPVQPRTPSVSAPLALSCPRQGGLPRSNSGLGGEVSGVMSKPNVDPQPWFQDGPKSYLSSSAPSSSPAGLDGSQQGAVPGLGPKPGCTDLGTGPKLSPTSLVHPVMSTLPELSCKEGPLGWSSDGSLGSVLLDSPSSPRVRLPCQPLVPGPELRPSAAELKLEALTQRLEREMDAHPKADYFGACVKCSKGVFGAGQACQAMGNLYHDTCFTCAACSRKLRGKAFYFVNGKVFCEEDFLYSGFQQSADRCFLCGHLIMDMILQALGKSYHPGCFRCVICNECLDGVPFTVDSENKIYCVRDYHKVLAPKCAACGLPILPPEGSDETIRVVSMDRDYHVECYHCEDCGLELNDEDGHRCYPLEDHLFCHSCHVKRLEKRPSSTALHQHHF
UniProt P16671: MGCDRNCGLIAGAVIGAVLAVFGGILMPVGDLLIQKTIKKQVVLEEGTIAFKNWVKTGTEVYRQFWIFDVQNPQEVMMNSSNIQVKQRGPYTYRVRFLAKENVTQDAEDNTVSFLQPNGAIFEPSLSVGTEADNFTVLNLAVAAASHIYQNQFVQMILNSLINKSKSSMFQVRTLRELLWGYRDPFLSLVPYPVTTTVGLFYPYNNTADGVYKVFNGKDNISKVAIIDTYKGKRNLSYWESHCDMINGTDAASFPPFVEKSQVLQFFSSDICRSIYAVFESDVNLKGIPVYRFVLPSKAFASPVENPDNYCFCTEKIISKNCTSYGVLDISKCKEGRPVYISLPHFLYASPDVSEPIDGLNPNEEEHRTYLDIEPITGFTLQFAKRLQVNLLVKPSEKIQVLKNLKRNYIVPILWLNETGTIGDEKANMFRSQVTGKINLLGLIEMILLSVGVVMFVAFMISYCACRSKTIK
UniProt P14780: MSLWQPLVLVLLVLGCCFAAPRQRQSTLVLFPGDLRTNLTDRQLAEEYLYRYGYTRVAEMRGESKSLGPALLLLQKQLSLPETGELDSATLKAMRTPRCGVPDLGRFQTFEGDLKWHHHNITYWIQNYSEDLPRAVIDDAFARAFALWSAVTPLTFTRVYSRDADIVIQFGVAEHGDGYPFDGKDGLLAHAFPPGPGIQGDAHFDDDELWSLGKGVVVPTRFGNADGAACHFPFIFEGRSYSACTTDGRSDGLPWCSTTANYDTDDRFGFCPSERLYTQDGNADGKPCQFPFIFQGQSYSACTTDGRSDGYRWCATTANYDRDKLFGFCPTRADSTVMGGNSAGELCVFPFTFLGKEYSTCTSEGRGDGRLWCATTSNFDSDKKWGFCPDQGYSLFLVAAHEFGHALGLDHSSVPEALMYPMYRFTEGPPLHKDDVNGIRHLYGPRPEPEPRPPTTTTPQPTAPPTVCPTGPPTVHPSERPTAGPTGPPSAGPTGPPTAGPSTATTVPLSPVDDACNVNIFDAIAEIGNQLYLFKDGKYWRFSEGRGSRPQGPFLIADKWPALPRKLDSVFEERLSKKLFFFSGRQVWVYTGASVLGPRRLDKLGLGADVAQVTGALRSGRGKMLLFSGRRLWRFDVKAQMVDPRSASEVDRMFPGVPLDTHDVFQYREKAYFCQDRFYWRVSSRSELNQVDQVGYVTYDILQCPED
UniProt P31947: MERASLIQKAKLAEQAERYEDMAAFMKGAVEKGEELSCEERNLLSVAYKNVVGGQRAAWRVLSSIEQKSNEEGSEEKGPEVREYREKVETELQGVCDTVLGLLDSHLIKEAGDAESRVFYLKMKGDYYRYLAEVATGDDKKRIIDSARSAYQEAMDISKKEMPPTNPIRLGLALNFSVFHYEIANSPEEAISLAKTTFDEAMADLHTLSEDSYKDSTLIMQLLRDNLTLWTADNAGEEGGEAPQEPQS
UniProt Q9UGJ0: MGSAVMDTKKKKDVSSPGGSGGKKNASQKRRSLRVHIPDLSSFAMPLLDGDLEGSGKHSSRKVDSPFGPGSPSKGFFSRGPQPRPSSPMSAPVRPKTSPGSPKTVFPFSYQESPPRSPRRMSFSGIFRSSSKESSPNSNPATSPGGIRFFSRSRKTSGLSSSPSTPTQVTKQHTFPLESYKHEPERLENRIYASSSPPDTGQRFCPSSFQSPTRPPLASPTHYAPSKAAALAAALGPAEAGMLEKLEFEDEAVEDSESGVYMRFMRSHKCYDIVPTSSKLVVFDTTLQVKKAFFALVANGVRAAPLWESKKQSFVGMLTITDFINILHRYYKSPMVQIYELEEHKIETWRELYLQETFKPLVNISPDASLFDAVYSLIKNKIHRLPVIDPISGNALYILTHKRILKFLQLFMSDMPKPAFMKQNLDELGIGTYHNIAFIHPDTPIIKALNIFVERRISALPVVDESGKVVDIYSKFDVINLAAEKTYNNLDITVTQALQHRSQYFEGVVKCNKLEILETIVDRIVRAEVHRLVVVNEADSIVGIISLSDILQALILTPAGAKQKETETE

Biological target: NEU1 sialidase (endogenous, plasma membrane of macrophages) (human (endogenous in THP-1)) (UniProt Q99519)
Assay: affinity purification with mass spectrometry; 4.8 x 10^8 macrophages differentiated from THP-1 cells; surface biotinylation (sulfo-NHS-LC-biotin), lysis in HEPES buffer pH 7.5 with 1% Triton X-100, monomeric avidin agarose, elution with 10 mM biotin, then immunoprecipitation with rabbit polyclonal anti-NEU1 on protein G Sepharose (overnight, 4 °C); SDS-PAGE, 23 bands, LC-MS/MS; rabbit IgG control; two independent purifications

For “Serine/threonine-protein kinase 25 (from UniProt O00506 1-426)”, the binding was “binds”.

“C5a anaphylatoxin chemotactic receptor 1 (from UniProt P21730 1-350)” was tested, and the binding was “binds”.

For “G-protein-coupled receptor 98 (from UniProt Q8WXG9 30-6306)”, the binding was “binds”.

“Receptor-type tyrosine-protein phosphatase beta (from UniProt P23467 23-1997)” was tested, and the binding was “binds”.

For “Tubulin beta-4A chain (from UniProt P04350 1-444)”, the binding was “binds”.

In the case of “integrin beta-2 (from UniProt P05107 23-769)”, the binding is reported as “binds”.

With “BTB/POZ domain-containing protein KCTD12 (from UniProt Q96CX2 1-325)” the binding was “binds”.

“Metalloproteinase inhibitor 1 (from UniProt P01033 24-207)” was tested, and the binding was “binds”.

With “Beta-actin-like protein 2 (from UniProt Q562R1 1-376)” the binding was “binds”.

In the case of “Ephrin type-B receptor 3 (from UniProt P54753 34-998)”, the binding is reported as “binds”.

Copine-3 (from UniProt O75131 1-537) was tested, and the binding was “binds”.

For “Mitogen-activated protein kinase 14 (from UniProt Q16539 1-360)”, the binding was “binds”.

For “LIM domain-containing protein 1 (from UniProt Q9UGP4 1-676)”, the binding was “binds”.

For “Ras-related protein Rab-1B (from UniProt Q9H0U4 1-201)”, the binding was “binds”.

In the case of “A-kinase anchor protein 13 (from UniProt Q12802 1-2813)”, the binding is reported as “binds”.

For “Platelet glycoprotein 4 (CD36), endogenous in macrophages (from UniProt P16671 1-472) (receptor)”, the binding was “binds”.

For Cytohesin-1 (from UniProt Q15438 1-398), the binding was “binds”.

In the case of Profilin-1 (from UniProt P07737 1-140), the binding is reported as “binds”.

With “matrix metalloproteinase-9 (from UniProt P14780)” the binding was “binds”.

For “CD63 antigen (from UniProt P08962 1-238)”, the binding was “binds”.

With “Tubulin beta-2B chain (from UniProt Q9BVA1 1-445)” the binding was “binds”.

With “A-kinase anchor protein 9 (from UniProt Q99996 1-3907)” the binding was “binds”.

With “14–3–3 protein sigma (from UniProt P31947 1-248)” the binding was “binds”.

In the case of “toll-like receptor 2 (from UniProt O60603 21-784)”, the binding is reported as “binds”.

For “Actin-related protein 2/3 complex subunit 1B (from UniProt O15143 1-372)”, the binding was “binds”.

With “Myosin regulatory light chain 12B (from UniProt O14950 1-172)” the binding was “binds”.

With “Fermitin family homolog 3 (from UniProt Q86UX7 1-667)” the binding was “binds”.

With “Putative Ras-related protein Rab-1C (from UniProt Q92928 1-201)” the binding was “binds”.

“5′-AMP-activated protein kinase subunit gamma-2 (from UniProt Q9UGJ0 1-569)” was tested, and the binding was “binds”.

For “Receptor-type tyrosine-protein phosphatase eta (from UniProt Q12913 36-1337)”, the binding was “binds”.

For “B-cell receptor CD22 (from UniProt P20273 20-847)”, the binding was “binds”.

For “Tubulin alpha-3E chain (from UniProt Q6PEY2 1-450)”, the binding was “binds”.

With “Serine/threonine-protein kinase 26 (from UniProt Q9P289 1-416)” the binding was “binds”.

In the case of “TRAF2 and NCK-interacting protein kinase (from UniProt Q9UKE5 1-1360)”, the binding is reported as “binds”.
